Where a chain is given by its changes, count along the chain named. No constants are given. Whether binding was seen depends on the method and setting. In cells and extracts the contact can be indirect. Binding can be weak; no strength is given. Sequences can lack the tags named with a protein.
How the values were obtained:
[1] = biological target: T1, GST-tagged CIP4-SH3(WT) (Mus musculus) (UniProt Q8CJ53); assay: pull-down; GST-tagged CIP4-SH3 (~5 ug) on GSH Sepharose 4B beads mixed with cell lysate containing EGFP-N-WASP; 4 C, 25 min; eluted with 100 mM GSH; western blot with anti-GFP; only the target purified
T1 sequence: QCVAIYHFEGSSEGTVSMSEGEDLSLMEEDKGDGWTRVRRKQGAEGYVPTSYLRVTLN

[2] = biological target: T2, GST-tagged CIP4-SH3(W524K) (Mus musculus) (UniProt Q8CJ53); assay: as above
T2 sequence: T1 sequence with W35K

binding [1]: binds
binding [2]: binds
Substance: EGFP-fused N-WASP (Homo sapiens)

Source: PMC10393992 (Nature Communications, 2023)
